From article PMC11372837, “Albumin-Mediated Drug Uptake by Organic Anion Transporter 1/3 Is Real: Implications for the Prediction of Active Renal Secretion Clearance” (Molecular Pharmaceutics, 2024)
Where two headings read alike, the source gives them in different places.

The chains behind the UniProt entries cited, without tags or fusion partners. Residues count along the entry.
UniProt P02768, 25-609: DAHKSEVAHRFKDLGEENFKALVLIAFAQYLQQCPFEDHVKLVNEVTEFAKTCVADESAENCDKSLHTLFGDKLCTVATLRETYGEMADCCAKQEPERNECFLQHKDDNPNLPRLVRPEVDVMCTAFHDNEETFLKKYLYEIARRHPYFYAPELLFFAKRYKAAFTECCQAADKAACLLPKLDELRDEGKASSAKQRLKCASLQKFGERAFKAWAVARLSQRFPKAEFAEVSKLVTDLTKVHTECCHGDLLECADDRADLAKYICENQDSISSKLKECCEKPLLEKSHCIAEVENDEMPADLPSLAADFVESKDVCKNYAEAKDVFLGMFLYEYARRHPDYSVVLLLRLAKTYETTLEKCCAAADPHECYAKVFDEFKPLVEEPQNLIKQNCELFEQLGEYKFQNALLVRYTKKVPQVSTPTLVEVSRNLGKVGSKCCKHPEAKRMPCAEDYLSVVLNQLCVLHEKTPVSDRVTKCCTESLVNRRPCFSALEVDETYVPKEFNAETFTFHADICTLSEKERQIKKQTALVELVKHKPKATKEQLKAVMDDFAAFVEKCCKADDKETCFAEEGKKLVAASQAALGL

Experiments:
OAT1 = biological target: T1, OAT1 (Homo sapiens, UniProt Q4U2R8); experiment: OAT1 uptake study in ciPTEC-OAT1; settings: control vs probenecid 300 μM
T1 sequence (Q4U2R8 1-563): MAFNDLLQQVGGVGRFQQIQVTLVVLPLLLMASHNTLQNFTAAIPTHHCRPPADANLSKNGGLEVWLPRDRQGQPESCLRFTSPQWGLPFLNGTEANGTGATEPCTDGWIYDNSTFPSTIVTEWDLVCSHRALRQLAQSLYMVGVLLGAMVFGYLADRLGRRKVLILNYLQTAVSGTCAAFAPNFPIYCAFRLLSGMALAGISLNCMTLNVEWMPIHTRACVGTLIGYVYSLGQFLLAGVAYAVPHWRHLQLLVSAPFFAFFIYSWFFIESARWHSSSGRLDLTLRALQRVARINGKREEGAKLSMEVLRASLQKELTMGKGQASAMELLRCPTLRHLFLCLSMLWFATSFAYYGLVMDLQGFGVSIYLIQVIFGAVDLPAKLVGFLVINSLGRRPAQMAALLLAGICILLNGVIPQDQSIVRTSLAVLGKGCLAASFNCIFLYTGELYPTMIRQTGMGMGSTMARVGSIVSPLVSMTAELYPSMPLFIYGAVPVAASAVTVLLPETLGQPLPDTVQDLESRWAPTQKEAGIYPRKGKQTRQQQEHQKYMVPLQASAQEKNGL

human serum albumin = human serum albumin (Homo sapiens, UniProt P02768); experiment: Extent of albumin binding: high throughput equilibrium dialysis (fu,inc, Kd); assay type: in vitro ADME; settings: mean ± SD; for fraction unbound at 6 h: human, equilibrium dialysis 37 °C 6 h
Experimental: Briefly, cellulose membranes with MWCO of 12–14 kDa were submerged in distilled water for 1 h, followed by 20% ethanol/distilled water for at least 20 min. Prior to the start of the experiment, cellulose membranes were rinsed in distilled water and submerged in blank DPBS for 15 min. The HTDialysis device was assembled according to the manufacturer’s instructions (https://www.htdialysis.com). Blank DPBS was first added to the receiver side of the dialysis membranes, followed by DPBS spiked with HSA and the OAT1/3 substrate to the donor side. Each HSA concentration was tested in triplicates. The HTDialysis device was sealed with an adhesive sealing film and incubated in a water bath at 37 °C for 6 h shaken at 150 rpm. Once the assay was completed, aliquots from both receiver and donor wells were transferred to a 96-well plate and stored at −80 °C until analysis. DPBS spiked with the OAT1/3 substrate from both before and after incubation was stored to assess the recovery and stability of the samples. To prepare the sample for analysis, donor and receiver samples were matrix-matched and quenched with ice-cold acetonitrile containing an internal standard (0.5 μM gemfibrozil or 0.05 μM buspirone).

OAT1/3 [1] = experiment: Bottom-up IVIVE of CLint,sec, CLsec and CLr, relative activity factor (RAF) approach; parameters: species or system human
Excerpt: (§1) The relative expression and relative activity factor (REF and RAF) are unitless scalers that account for in vivo versus in vitro differences in the abundance and activity of OAT1/3 and are used for IVIVE of in vitro CLint,u,active. REF was derived from the OAT1/3 expression ratio between the in vivo human kidney cortex to the in vitro ciPTEC-OAT1/3, as shown in eq 7: [drawing 8] 7 Absolute abundance of OAT1 and OAT3 in the human kidney cortex was previously quantified by our group using the filter-aided sample preparation protocol and global proteomic analysis.[44]

[2] = in vivo, plasma renal clearance, clinical data; cited from earlier work
OAT3 = biological target: T2, OAT3 (Homo sapiens, UniProt Q8TCC7); experiment: OAT3 uptake study in ciPTEC-OAT3
T2 sequence (Q8TCC7 1-542): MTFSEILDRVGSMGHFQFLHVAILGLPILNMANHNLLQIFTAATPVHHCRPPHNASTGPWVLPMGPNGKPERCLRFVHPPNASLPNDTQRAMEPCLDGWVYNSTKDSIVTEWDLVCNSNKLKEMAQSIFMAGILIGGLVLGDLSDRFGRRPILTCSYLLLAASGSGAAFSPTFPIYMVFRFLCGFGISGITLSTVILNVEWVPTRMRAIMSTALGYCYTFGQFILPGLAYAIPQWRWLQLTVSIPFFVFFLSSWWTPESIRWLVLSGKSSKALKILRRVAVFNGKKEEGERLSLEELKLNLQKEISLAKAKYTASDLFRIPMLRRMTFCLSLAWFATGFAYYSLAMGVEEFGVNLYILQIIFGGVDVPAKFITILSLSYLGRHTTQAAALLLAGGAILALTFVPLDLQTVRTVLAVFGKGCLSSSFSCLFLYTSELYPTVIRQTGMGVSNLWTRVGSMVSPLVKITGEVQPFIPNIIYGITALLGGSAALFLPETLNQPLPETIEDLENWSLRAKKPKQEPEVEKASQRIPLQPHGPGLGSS

[3] = human, in vivo
OAT1/3 [4] = experiment: Bottom-up IVIVE of CLint,sec, CLsec and CLr, relative expression factor (REF) approach; parameters: species or system human
Excerpt: as §1

NS(=O)(=O)c1cc(C(=O)O)c(NCc2ccco2)cc1Cl [furosemide]
OAT1 substrate status (uptake in ciPTEC-OAT1) (OAT1): did not observe appreciable OAT1-mediated transport
OAT1 substrate status (uptake in ciPTEC-OAT1) (OAT1; listed as Furosemide): did not show any appreciable uptake
Kd (human serum albumin; estimated using eq 3 from measured fu,inc): 26.1 ± 1.6 µM
fraction unbound at 6 h (human serum albumin; 1% human serum albumin in DPBS, 1% HSA, read-out: fu,inc (1%)): 0.162 ± 0.03
fraction unbound at 6 h (human serum albumin; 4% HSA in DPBS, 4% HSA, read-out: fu,inc (4%)): 0.038 ± 0.002
CLint,sec Predicted 0% HSA (OAT1/3 [1]): 29.4 L/h
CLint,sec Predicted 1% HSA (OAT1/3 [1]): 191 L/h
CLint,sec Predicted 4% HSA (OAT1/3 [1]): 579 L/h
CLsec Predicted 0% HSA (OAT1/3 [1]): 0.91 L/h
CLsec Predicted 1% HSA (OAT1/3 [1]): 5.20 L/h
CLsec Predicted 4% HSA (OAT1/3 [1]): 12.2 L/h
CLr Observed [2]: 5.31 L/h
ratio of CLint,u,active (R) (HSA/control) 1% (OAT3; OAT3, 1% HSA vs control): 6.52 ± 0.90
ratio of CLint,u,active (R) (HSA/control) 4% (OAT3; OAT3, 4% HSA vs control): 21.1 ± 7.7
CLint,sec Observed [3]: 190 L/h
CLint,sec Predicted 0% HSA (OAT1/3 [4]): 5.83 L/h
CLint,sec Predicted 1% HSA (OAT1/3 [4]): 37.8 L/h
CLint,sec Predicted 4% HSA (OAT1/3 [4]): 115 L/h
CLsec Predicted 0% HSA (OAT1/3 [4]): 0.19 L/h
CLsec Predicted 1% HSA (OAT1/3 [4]): 1.17 L/h
CLsec Predicted 4% HSA (OAT1/3 [4]): 3.32 L/h
